Experimental data: PubChem BioAssay (NCATS)
The list shows a part of the results. These are further read-outs of the screen, such as a control signal, another cell line or another target. No call is given for them. Compounds called inactive in the main read-out are mostly missing here. Words in brackets tell the shape of the fitted curve; partial curves, single points and poor fits give uncertain potencies.

Assay: qHTS for identification of novel therapeutic agents for treatment of microphthalmiaassociated transcription factor (MiT) renal cell carcinoma (RCC) (AID 1963991)
Details: CellTiter-Glo, 48 h; for z-score: stronger effect = lower value
Procedure, shortened: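 UOK109/UOK124/UOK145 (TFE3 fusions, three partners); 500 cells/well; MIPE v4.0, 1912 cpds, 11 conc.; 48 h, 37 C; CellTiter-Glo, 15 min RT; lum. Norm.: DMSO 100%, empty 0%.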

[1] = TFE3-RCC UOK109 viability, measured here: UOK109 Z-AUC
[2] = TFE3-RCC viability, measured here: UOK124 Z-AUC
[3] = TFE3-RCC viability, measured here: UOK145 Z-AUC
[4] = TFE3-RCC viability, measured here: UOK145 cell viability
[5] = TFE3-RCC viability, measured here: UOK124 cell viability

Structure (SMILES)	z-score [1]	z-score [2]	z-score [3]	AC50 [4]	AC50 [5]
CN[C@@H](C)[C@H]1[C@H](O)C[C@@]2(C)[C@@H]3CC[C@H]4C(C)(C)[C@@H](NC)CC[C@@]45C[C@@]35CC[C@]12C	0.218	0.226	0.312	23.5 µM [falling, partial curve, poor fit]	
COC(=O)C=CC(=O)OC	-1.38	0.624	-0.195	13.2 µM [falling, partial curve]	
CCCCOc1ccc(C(=O)Nc2ccc(F)cc2F)cc1	0.623	0.067	0.187		0.00187 µM [rising, full curve]
COc1cc([C@H]2Oc3cc([C@H]4Oc5cc(O)cc(O)c5C(=O)[C@H]4O)ccc3O[C@H]2CO)ccc1O	1.14	0.258	-0.00811	16.6 µM [falling, partial curve, poor fit]	
C[N+](C)(C)CC(=O)O	0.317	0.31	1.61	37.2 µM [falling, partial curve, poor fit]	
Fc1ccc(Cl)cc1-c1nc(Nc2ccncc2)c2nccnc2n1	0.65	0.273	0.208		3.32 µM [falling, partial curve, poor fit]
C[C@@H]1[C@H](C)CC[C@]2(C(=O)O)CC[C@]3(C)C(=CC[C@@H]4[C@@]5(C)CC[C@H](O)C(C)(C)[C@H]5CC[C@]43C)[C@@H]12	-0.243	0.661	-0.0699		48.1 µM [falling, partial curve, poor fit]
C[C@]12CC[C@@H]3c4ccc(O)cc4CC[C@H]3[C@H]1[C@@H](O)[C@@H](O)[C@H]2O	-0.349	0.408	0.219	16.6 µM [falling, partial curve]	
CS(=O)(=O)c1ccc(C(=O)Nc2ccc(Cl)c(-c3ccccn3)c2)c(Cl)c1	-0.371	-0.0362	-0.27	37.2 µM [falling, single point]	
CCN1CCN(c2ccc(Nc3cc(N(C)C(=O)Nc4c(Cl)c(OC)cc(OC)c4Cl)ncn3)cc2)CC1	0.581	-0.21	0.604	8.33 µM [falling, partial curve, poor fit]	
COc1cc(F)c(C(C)C)cc1-c1ccc(C(F)(F)F)cc1CN1C(=O)O[C@H](c2cc(C(F)(F)F)cc(C(F)(F)F)c2)[C@@H]1C	0.538	0.481	-0.0958	23.5 µM [falling, partial curve, poor fit]	
CN(C)c1ccc(O)c2c1C[C@H]1C[C@H]3[C@H](N(C)C)C(=O)C(C(N)=O)=C(O)[C@@]3(O)C(=O)C1=C2O	1.5	0.515	1.47	5.26 µM [falling, full curve]	
CN(C(Cc1ccc(OS(=O)(=O)c2cccc3cnccc23)cc1)C(=O)N1CCN(c2ccccc2)CC1)S(=O)(=O)c1cccc2cnccc12 (configuration not stated)	0.0214	0.246	0.457	20.9 µM [falling, partial curve]	
COC(=O)[C@H](c1ccccc1Cl)N1CCc2sccc2C1	0.448	0.253	0.708		13.2 µM [falling, partial curve]
CC(=CC(=O)Nc1ccccc1C(=O)O)c1ccc2ccccc2c1	0.101	0.564	0.327	18.7 µM [falling, partial curve]	
CC(C)(C)c1[nH]cnc1C=c1[nH]c(=O)c(=Cc2ccccc2)[nH]c1=O	-2.74	-4.13	-1.84		0.00959 µM [falling, full curve, poor fit]
CC(C)[N+]1(C)[C@@H]2CC[C@H]1CC(OC(=O)C(CO)c1ccccc1)C2 (some centres not stated)	-0.217	0.224	0.378	18.7 µM [falling, partial curve, poor fit]	
NC1=N[C@@]2(c3cc(NC(=O)c4ccc(F)cn4)ccc3F)COC[C@@H]2CS1	-0.216	-2.01	0.19	4.69 µM [falling, full curve]	
NC1=N[C@H]2[C@H](CS[C@H]2CCCCC(=O)O)N1	1.16	1.15	-1.62	0.0363 µM [falling, partial curve, poor fit]	
Cc1ccc(-n2nc(C(C)(C)C)cc2NC(=O)Nc2ccc(OCCN3CCOCC3)c3ccccc23)cc1	-0.000275	0.288	0.0548	18.7 µM [falling, partial curve]	
CC(C)(C)c1nc2c3cc[nH]c(=O)c3c3cc(F)ccc3c2[nH]1	0.281	-0.603	-0.0236	3.72 µM [falling, full curve]	
COc1ccc(-c2c(-c3ccc(O)cc3O)n[nH]c2C)cc1	0.386	-0.169	0.628		48.1 µM [falling, partial curve, poor fit]

Copied from the list.
z-score [2] with CC(C)[N+]1(C)[C@@H]2CC[C@H]1CC(OC(=O)C(CO)c1ccccc1)C2 (some centres not stated) reads 0.224
z-score [2] with NC1=N[C@H]2[C@H](CS[C@H]2CCCCC(=O)O)N1 reads 1.15
z-score [3] with CN(C)c1ccc(O)c2c1C[C@H]1C[C@H]3[C@H](N(C)C)C(=O)C(C(N)=O)=C(O)[C@@]3(O)C(=O)C1=C2O reads 1.47

Next entries:

Structure (SMILES)	z-score [1]	z-score [2]	z-score [3]	AC50 [4]	AC50 [5]
C[C@@H]1CC=CC=CC=CC=C[C@@H](O[C@@H]2O[C@H](C)[C@@H](O)[C@H](N)[C@H]2O)C[C@@H]2O[C@](O)(C[C@@H](O)C[C@@H]3O[C@@H]3C=CC(=O)O1)C[C@H](O)[C@@H]2C(=O)O	0.549	0.422	0.448	7.43 µM [falling, full curve]	
CC[C@]1(O)C[C@@H]2CN(CCc3c([nH]c4ccccc34)[C@@](C(=O)OC)(c3cc4c(cc3OC)N(C=O)[C@@H]3C45CCN4CC=C[C@](CC)([C@H]45)[C@@H](OC(C)=O)[C@]3(O)C(=O)OC)C2)C1 (some centres not stated)	-0.0773	0.686	-0.876		23.5 µM [falling, single point]
O=C(O)[C@H]1O[C@H](Oc2cc3oc(-c4ccccc4)cc(=O)c3c(O)c2O)[C@H](O)[C@@H](O)[C@H]1O	0.634	0.939	0.883		0.0166 µM [rising, full curve]
O=S(=O)(N=Cc1c(O)ccc2ccccc12)c1cccs1	0.337	-0.487	-0.384	5.9 µM [falling, full curve]	
CC1(C)CC(O)CC(C)(C)N1[O]	1.13	0.37	-0.31	1.66 µM [falling, full curve]	
COc1c(C)c2c(c(O)c1CC=C(C)CCC(=O)O)C(=O)OC2	0.314	0.211	0.0217	0.935 µM [falling, full curve]	
CCC(=O)NC[C@H](Cc1ccc(OCCc2nc(-c3ccccc3)oc2C)cc1)NC(C)=CC(=O)c1ccc(C(F)(F)F)cc1	-0.354	0.163	-0.285	16.6 µM [falling, partial curve]	
Cc1cccc(-c2[nH]ncc2-c2ccc3ncccc3n2)n1	1.13	0.853	0.694		0.0372 µM [rising, full curve]
C[C@@H](NCc1cc2ccccc2[nH]1)c1cccc2ccccc12	0.486	0.198	0.146		0.00105 µM [rising, full curve, poor fit]
CON=C(C(=O)N[C@@H]1C(=O)N2C(C(=O)OCOC(=O)C(C)(C)C)=C(C=Cc3scnc3C)CS[C@H]12)c1csc(N)n1	1.16	0.677	-0.0549	0.0235 µM [rising, full curve]	
CC[C@H]1OC(=O)[C@H](C)C(=O)[C@H](C)[C@@H](O[C@H]2O[C@H](C)C[C@H](N(C)C)[C@@H]2O)[C@](C)(OC)C[C@@H](C)C(=O)[C@H](C)[C@H]2N(CCCCn3cnc(-c4cccnc4)c3)C(=O)O[C@]12C	1.7	-0.132	0.886		0.0148 µM [rising, full curve, poor fit]
O=C1CCCC(=O)C1C(=O)c1ccc(C(F)(F)F)cc1[N+](=O)[O-]	0.771	0.281	0.605	26.4 µM [falling, partial curve, poor fit]	
CC(C)NCC(O)COc1ccc(CCOCC2CC2)cc1 (configuration not stated)	0.444	0.0952	1.01	0.0296 µM [rising, full curve, poor fit]	
COc1ccc(Nc2nccc(NCCO)n2)cc1	0.207	0.0656	-0.194		0.00148 µM [rising, full curve]
CCNC(=O)Nc1ccc(Oc2ncnc(N)c2C=NOC)cc1Cl	0.293	0.11	0.358	23.5 µM [falling, single point]	
CCOC(=O)N[C@@H]1CC[C@@H]2[C@@H](C1)C[C@H]1C(=O)O[C@H](C)[C@H]1[C@@H]2C=Cc1ccc(-c2cccc(F)c2)cn1	0.588	0.765	0.582	37.2 µM [falling, partial curve, poor fit]	
C[C@]12CCC3c4ccc(O)cc4CCC3C1CCC2=O (some centres not stated)	0.0281	-0.0142	1.06	0.00935 µM [falling, full curve, poor fit]	
O=C1C(c2c(O)[nH]c3ccccc23)=Nc2ccccc21	-0.491	0.151	0.195	18.7 µM [falling, partial curve]	
CCn1c(C(=O)N(C2CC2)C2CC2)cc2c3c(ncn3C)c(Nc3cc(C)n(C)n3)nc21	-0.508	0.383	0.0172	26.4 µM [falling, partial curve, poor fit]	
Cn1cc(-c2ccc3nnc(Sc4ccc5ncccc5c4)n3n2)cn1	0.251	1.3	0.608	29.6 µM [falling, single point]	
COc1ccc(CCC(=O)c2c(O)cc(O[C@@H]3O[C@H](CO)[C@@H](O)[C@H](O)[C@@H]3O[C@@H]3O[C@@H](C)[C@H](O)[C@@H](O)[C@@H]3O)cc2O)cc1O	-0.193	0.767	0.27	18.7 µM [falling, partial curve]	
